This is an account of results in patent publication US20250235460A1, “COMBINATION THERAPY USING GLUCOSE-DEPENDENT INSULINOTROPIC POLYPEPTIDE RECEPTOR ANTAGONIST COMPOUNDS AND GLP-1 RECEPTOR AGONIST COMPOUNDS” (Pfizer Inc., priority 2024, published 2025).

The chains behind the UniProt entries cited, without tags or fusion partners. Residues count along the entry.
UniProt P43220, 24-463 G168S limits assumed: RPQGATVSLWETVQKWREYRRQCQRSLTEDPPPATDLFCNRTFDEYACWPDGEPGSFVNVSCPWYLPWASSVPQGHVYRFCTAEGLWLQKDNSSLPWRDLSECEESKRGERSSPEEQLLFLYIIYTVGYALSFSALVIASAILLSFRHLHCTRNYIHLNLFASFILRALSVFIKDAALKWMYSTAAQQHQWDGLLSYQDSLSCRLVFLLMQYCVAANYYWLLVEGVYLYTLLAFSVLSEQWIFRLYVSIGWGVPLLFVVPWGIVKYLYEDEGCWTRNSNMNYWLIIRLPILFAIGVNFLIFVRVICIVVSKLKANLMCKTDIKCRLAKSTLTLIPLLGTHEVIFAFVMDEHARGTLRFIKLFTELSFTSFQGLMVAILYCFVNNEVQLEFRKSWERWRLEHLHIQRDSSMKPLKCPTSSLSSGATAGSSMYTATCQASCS
UniProt P43220, 24-463 L260F limits assumed: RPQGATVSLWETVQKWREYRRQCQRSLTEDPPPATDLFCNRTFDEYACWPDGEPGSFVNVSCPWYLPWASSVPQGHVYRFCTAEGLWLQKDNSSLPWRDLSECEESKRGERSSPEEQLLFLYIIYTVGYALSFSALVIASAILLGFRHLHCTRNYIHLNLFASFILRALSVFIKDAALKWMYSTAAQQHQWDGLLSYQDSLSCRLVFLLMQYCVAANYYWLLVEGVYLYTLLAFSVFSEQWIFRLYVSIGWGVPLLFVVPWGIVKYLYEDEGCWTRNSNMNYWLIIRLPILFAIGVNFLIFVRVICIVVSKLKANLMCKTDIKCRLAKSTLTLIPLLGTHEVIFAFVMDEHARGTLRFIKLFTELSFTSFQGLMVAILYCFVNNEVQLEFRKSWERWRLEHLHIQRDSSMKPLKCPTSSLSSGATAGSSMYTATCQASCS

Where two headings read alike, the source gives them in different places. Structures were worked out from names or drawings and are uncertain.

The target in experiment [1] is human GLP-1R (Homo sapiens, UniProt P43220, G168S). Nature of the experiment: CHO GLP-1R Clone H6 cAMP HTRF agonist assay (Assay 1, high receptor density). Conditions: for Assay 1 Emax (%): CHO GLP-1R clone H6, arithmetic mean, relative to saturating GLP-1 (1 μM); for EC50: read-out: Assay 1 EC50, CHO GLP-1R clone H6, cAMP HTRF, geometric mean. It counts as cell-based.

Experiment [2] addresses human GLP-1R (Homo sapiens, UniProt P43220, L260F). In words: CHO GLP-1R Clone C6 cAMP HTRF agonist assay (Assay 2, low receptor density). Conditions: for Assay 2 Emax (%): CHO GLP-1R clone C6, arithmetic mean, relative to saturating GLP-1 (1 μM); for EC50: read-out: Assay 2 EC50, CHO GLP-1R clone C6, cAMP HTRF, geometric mean. It counts as cell-based. Background: TR-FRET usually uses a lanthanide donor and a delayed reading to cut background.

As a reminder, the EC50 is the concentration that produces a half-maximal response. In the case of `CCn1cncc1Cn1c(CN2CCN(c3cccc(OCc4ccc(Cl)cc4F)n3)C[C@@H]2C)nc2ccc(C(=O)O)cc21`, on human GLP-1R [1], the “Assay 1 Emax (%)” value stood at 88% and the EC50 came out at 0.00076 µM. Further, at human GLP-1R [2], the “Assay 2 Emax (%)” value amounted to 100% and the EC50 was determined as 0.0088 µM.

As to `C[C@H]1CN(c2cccc(OCc3ccc(C#N)cc3F)n2)CCN1Cc1nc2ccc(C(=O)O)cc2n1Cc1cnnn1C`, on human GLP-1R [1], the “Assay 1 Emax (%)” value amounted to 86% and the EC50 amounted to 0.00058 µM. In addition, on human GLP-1R [2], the “Assay 2 Emax (%)” value was determined as 110% and the EC50 worked out at 0.011 µM.

`O=C(O)c1ccc2nc(CN3CCC(c4cccc(OCc5ccc(Cl)cc5F)n4)CC3)n(Cc3ccno3)c2c1`: on human GLP-1R [1], the “Assay 1 Emax (%)” value was 83% and the EC50 came to 0.00094 µM. Further, at human GLP-1R [2], the “Assay 2 Emax (%)” value is 98% and the EC50 was 0.012 µM.

As for `Cn1c(CN2CCC(c3cccc(OCc4ccc(Cl)cc4F)n3)CC2)nc2ccc(C(=O)O)cc21`, at human GLP-1R [1] (tested form: HCl), the “Assay 1 Emax (%)” value is given as 72% and the EC50 was found to be 0.0013 µM. On human GLP-1R [2] (tested form: HCl), the “Assay 2 Emax (%)” value was 87% and the EC50 is 0.027 µM.

Regarding `Cn1c(CN2CCC(c3cccc(OCc4ccc(Cl)cc4F)n3)CC2)nc2cc(Cl)c(C(=O)O)cc21`, on human GLP-1R [1], the “Assay 1 Emax (%)” value came out at 75% and the EC50 stood at 0.013 µM. Further, at human GLP-1R [2], the “Assay 2 Emax (%)” value amounted to 80% and the EC50 came out at 0.25 µM.

In the case of `CCn1cncc1Cn1c(CN2CCC(c3cccc(OCc4ccc(Cl)cc4F)n3)CC2)nc2ccc(C(=O)O)cc21`, at human GLP-1R [1], the “Assay 1 Emax (%)” value was determined as 99% and the EC50 was determined as 0.1 µM. In addition, on human GLP-1R [2], the “Assay 2 Emax (%)” value worked out at 90% and the EC50 was 1.1 µM.

Regarding `O=C(O)c1ccc2nc(CN3CCN(c4cccc(OCc5ccc(Cl)cc5F)n4)CC3)n(C[C@H]3CCO3)c2c1`, on human GLP-1R [1], the “Assay 1 Emax (%)” value came to 79% and the EC50 came to 0.0029 µM. Besides, on human GLP-1R [2], the “Assay 2 Emax (%)” value is 95% and the EC50 came out at 0.051 µM.

Take `C[C@H]1CN(c2cccc(OCc3ccc(Cl)cc3F)n2)CCN1Cc1nc2ccc(C(=O)O)cc2n1Cc1cnnn1C`: on human GLP-1R [1], the “Assay 1 Emax (%)” value turned out to be 96% and the EC50 was 0.0029 µM. Also, at human GLP-1R [2], the “Assay 2 Emax (%)” value is on record as 97% and the EC50 turned out to be 0.028 µM.
